According to patent publication US20070160574A1, “Design of CXC chemokine analogs for the treatment of human diseases” (priority 2000, published 2007):
pKi: −log10 of the molar value. At least one structure is not confirmed: it was looked up by name or label, or the drawing left a doubt. No end group written: not given here.

Amino acid sequences for entries named in this document (tags omitted).
UniProt P61073, whole entry: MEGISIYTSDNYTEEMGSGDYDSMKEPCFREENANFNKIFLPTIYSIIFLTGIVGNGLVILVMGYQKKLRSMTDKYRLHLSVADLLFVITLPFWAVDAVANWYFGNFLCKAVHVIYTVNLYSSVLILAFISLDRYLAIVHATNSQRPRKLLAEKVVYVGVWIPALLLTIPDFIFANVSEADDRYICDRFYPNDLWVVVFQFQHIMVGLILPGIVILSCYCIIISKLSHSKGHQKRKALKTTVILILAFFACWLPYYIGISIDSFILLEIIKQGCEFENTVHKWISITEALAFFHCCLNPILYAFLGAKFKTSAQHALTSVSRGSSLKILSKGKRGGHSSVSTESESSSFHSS

Target: T1, SDF-1 receptor on SUP-T1 cells (Homo sapiens, UniProt P61073)
T1 construct: host or cells: SUP-T1 human lymphoid cells
Assay: SDF-1 mimetic binding assay, competition with 0.02 nM 125I-SDF-1 on SUP-T1 cells (Ki)
Conditions: 0.02 nM 125I-SDF-1, 4° C., 2 h

KPVSLSYRAPFRFFKGGGLKWIQEYLEKALN-NH2 (C-terminus assumed) [SEQ ID NO: 3]
pKi: 6.18
